{
  "sequences": {"note": "Amino acid sequences for entries named in this document (tags omitted).", "UniProt Q0JBA9, entry or part of it": "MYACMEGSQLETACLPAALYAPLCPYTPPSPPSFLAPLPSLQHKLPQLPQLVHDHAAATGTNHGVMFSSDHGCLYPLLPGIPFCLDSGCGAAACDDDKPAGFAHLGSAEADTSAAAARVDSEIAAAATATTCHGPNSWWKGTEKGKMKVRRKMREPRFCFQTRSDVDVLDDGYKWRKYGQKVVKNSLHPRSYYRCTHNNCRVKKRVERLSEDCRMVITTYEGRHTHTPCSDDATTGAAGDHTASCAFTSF"},
  "source": "paper PMC7819943",
  "about": "“Rice protein-binding microarrays: a tool to detect cis-acting elements near promoter regions in rice”",
  "note": "The list shows a part of the results.",
  "data": [
    {"target": "OsWRKY34 (Oryza sativa, UniProt Q0JBA9 1-250)", "assay": "protein-binding microarray (RPBM); PBS, 2% BSA, 51.3 ng/ul salmon testes DNA, 50 uM zinc acetate, 200 nM TF, 25 C, 1 h; high values mean tight binding", "settings": "protein: recombinant; tags: N-terminal polyhistidine and DsRed monomer fusion (pET32a); label: CyDye5-dUTP incorporated in the synthesized complementary strand; 3' TTTTT single-stranded linker to array surface; dsDNA, one strand shown", "method_in_brief": "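The binding signal is fluorescence intensity per array feature (arbitrary units). Readings came from an Axon 4000B scanner after a washed, 2% BSA-blocked, double-stranded custom Agilent array had been incubated for 1 h at 25 °C with 200 nM protein and 50 µM zinc acetate. The protein was a Ni–NTA-purified transcription factor fused N-terminally to polyhistidine and DsRed, expressed in E. coli BL21-CodonPlus.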", "values": [
      {"sequence": "GCGTTGGTTTTATGTTATACTCTGCCTTTCCAAATCATTTCGGAGTCACCTAGTGCAG", "binding signal": "9600 fluorescence intensity (a.u.)"},
      {"sequence": "GATATCCGTGTTCTTCTCTGACCGAATCCGAATCCCGCGTCGGAGTCACCTAGTGCAG", "binding signal": "9760 fluorescence intensity (a.u.)"},
      {"sequence": "AAATGCAGACACTCATAACACATATACTCAACGCATATATCGGAGTCACCTAGTGCAG", "binding signal": "8600 fluorescence intensity (a.u.)"},
      {"sequence": "CACATTTTCTTCTTATCTTGTTGCTCACTTGTTCTGTTCTCGGAGTCACCTAGTGCAG", "binding signal": "9020 fluorescence intensity (a.u.)"},
      {"sequence": "TTTCGCCGGCCGCGGATTGACACCCAAATTTATAGAGCATCGGAGTCACCTAGTGCAG", "binding signal": "8510 fluorescence intensity (a.u.)"},
      {"sequence": "ACCGCCTTTTTTGCCACCTTTGTAGCGCCGTCTACCATTGCGGAGTCACCTAGTGCAG", "binding signal": "10700 fluorescence intensity (a.u.)"},
      {"sequence": "CTCGTTTCGTGTGCGCCGCGCGGCTGCTGCTGCTGCTTTCCGGAGTCACCTAGTGCAG", "binding signal": "9080 fluorescence intensity (a.u.)"},
      {"sequence": "CAAATATATATTTTTACTTTCACTTTTAGTCCCTTGTAGCCGGAGTCACCTAGTGCAG", "binding signal": "8700 fluorescence intensity (a.u.)"},
      {"sequence": "GTTTCTTGGTCGTGGGGTCGAGGAGGTGGTGGGTGGTGGTCGGAGTCACCTAGTGCAG", "binding signal": "14800 fluorescence intensity (a.u.)"},
      {"sequence": "AAAAAACACTATTTTTGCAATTAATTTCTCTGCACACTCACGGAGTCACCTAGTGCAG", "binding signal": "8590 fluorescence intensity (a.u.)"},
      {"sequence": "CATCTGTTTACTTTGTCTTGTTAACTCTCTTGCCACATCACGGAGTCACCTAGTGCAG", "binding signal": "11100 fluorescence intensity (a.u.)"},
      {"sequence": "TCATCGAGCGAACGCCCGTGGGCCGTTGGCCGTTGACTGCCGGAGTCACCTAGTGCAG", "binding signal": "9810 fluorescence intensity (a.u.)"},
      {"sequence": "CTCCTCTTTGACCTCGCTATCTATCCATCTACTGCAGTTTCGGAGTCACCTAGTGCAG", "binding signal": "11400 fluorescence intensity (a.u.)"},
      {"sequence": "CATTTGAACCTTGTGGCTTTATTGTGCTCCGACGTTTTAACGGAGTCACCTAGTGCAG", "binding signal": "8950 fluorescence intensity (a.u.)"},
      {"sequence": "ACTTCTACCTTTCGTTTTTCCACGCGCATATGCTTTTTGACGGAGTCACCTAGTGCAG", "binding signal": "20300 fluorescence intensity (a.u.)"},
      {"sequence": "TCTGTTGCTTTGCTTTGCTTCGGTTAGCTTCTTTCACAGCCGGAGTCACCTAGTGCAG", "binding signal": "8100 fluorescence intensity (a.u.)"},
      {"sequence": "TTGTCACTGCATTTACCTTCAGACTTTTTTCCCCTTGAAACGGAGTCACCTAGTGCAG", "binding signal": "8920 fluorescence intensity (a.u.)"},
      {"sequence": "CTCCGTATCTAACCATTCATCCCTTCCTCACTCCGTTTTTCGGAGTCACCTAGTGCAG", "binding signal": "8500 fluorescence intensity (a.u.)"},
      {"sequence": "GGAGTTCGTGGGGACGTTCATCCTCATCTTCTTCGCGACGCGGAGTCACCTAGTGCAG", "binding signal": "9260 fluorescence intensity (a.u.)"},
      {"sequence": "GGCTTGCTTTGCTGTTGCCGTTGTTTTGCTTTGCCTTGCCCGGAGTCACCTAGTGCAG", "binding signal": "9230 fluorescence intensity (a.u.)"},
      {"sequence": "TTACACTTGTTTCGTCTCATCTCTCGTGTCCCCTCACTTCCGGAGTCACCTAGTGCAG", "binding signal": "9260 fluorescence intensity (a.u.)"},
      {"sequence": "GCGACCAAATCCCCATCCCCACCACTCTGCACTTCCGCTACGGAGTCACCTAGTGCAG", "binding signal": "8190 fluorescence intensity (a.u.)"},
      {"sequence": "TCCGTCTCTACTTGCCTGCCATTTTTGTCACATAAACCCTCGGAGTCACCTAGTGCAG", "binding signal": "13200 fluorescence intensity (a.u.)"},
      {"sequence": "TTTAGATTTATTTTTTGTGACATAGGGAGTACTTTTTTTTCGGAGTCACCTAGTGCAG", "binding signal": "9200 fluorescence intensity (a.u.)"},
      {"sequence": "TAGTTGGCGCTTGGGTTTGGGGTTTCGTTTCGTGTCCCAACGGAGTCACCTAGTGCAG", "binding signal": "15900 fluorescence intensity (a.u.)"},
      {"sequence": "AACCGGCAGTAGTACCAATGATGCACCTTTGCACCAGTTTCGGAGTCACCTAGTGCAG", "binding signal": "9450 fluorescence intensity (a.u.)"},
      {"sequence": "CTTTGGTCTGCACTGACACTTTGTTCTTGCTGCATTTCTTCGGAGTCACCTAGTGCAG", "binding signal": "9040 fluorescence intensity (a.u.)"},
      {"sequence": "GATTTGGTTCTCTCCAGTATCTATCTCATGTTCACTTGCCCGGAGTCACCTAGTGCAG", "binding signal": "9400 fluorescence intensity (a.u.)"},
      {"sequence": "GAGTTCGGCCTTTCCGGTTTCCGGTTGTGTTGTGAGGAGTCGGAGTCACCTAGTGCAG", "binding signal": "10600 fluorescence intensity (a.u.)"},
      {"sequence": "TTCCTTTTCTGCGTCACTGGTAGTTACAGTATTTTGGCTACGGAGTCACCTAGTGCAG", "binding signal": "10100 fluorescence intensity (a.u.)"},
      {"sequence": "CGTCTCTCCCGATCCGTCCCATCAAAAAGCAACACCAATACGGAGTCACCTAGTGCAG", "binding signal": "8530 fluorescence intensity (a.u.)"},
      {"sequence": "TTATCTTCTTTTATTATGTTTGATCTTCTTTTGTTCGATACGGAGTCACCTAGTGCAG", "binding signal": "9330 fluorescence intensity (a.u.)"},
      {"sequence": "TCGATGGGTGGGCTTGGGCTGACAAACAATCACACTCTCGCGGAGTCACCTAGTGCAG", "binding signal": "8290 fluorescence intensity (a.u.)"},
      {"sequence": "AATTTTACCCCTCATATCTACTATTCTTCCGTGCAATTTTCGGAGTCACCTAGTGCAG", "binding signal": "9530 fluorescence intensity (a.u.)"},
      {"sequence": "TCTCTCATTTCTCTCTCTCATCACACGGACGCAATGCAAACGGAGTCACCTAGTGCAG", "binding signal": "9150 fluorescence intensity (a.u.)"},
      {"sequence": "TCCAAACTCCAAAGCCCTTTGCTCTAGCTATTTCTTTTTGCGGAGTCACCTAGTGCAG", "binding signal": "8540 fluorescence intensity (a.u.)"},
      {"sequence": "AACTCCATCTTCTTCTTTGCTTCGCCCTTGATTTGTGTGCCGGAGTCACCTAGTGCAG", "binding signal": "10400 fluorescence intensity (a.u.)"},
      {"sequence": "GTAATCGCCTCTCACGTCAGTACGCGTCCCAACCTGCTCCCGGAGTCACCTAGTGCAG", "binding signal": "8050 fluorescence intensity (a.u.)"},
      {"sequence": "AACAATCTCACAATCACCCAGGGCCGAACGCAGCCTTATACGGAGTCACCTAGTGCAG", "binding signal": "8800 fluorescence intensity (a.u.)"},
      {"sequence": "CTTTTTCCTATATATTTATAATTTGCAATTTTTTTTACTACGGAGTCACCTAGTGCAG", "binding signal": "8810 fluorescence intensity (a.u.)"},
      {"sequence": "CATCATGTCTCTCCGCTTAACCGCTCCTACGACTCCATCCCGGAGTCACCTAGTGCAG", "binding signal": "9700 fluorescence intensity (a.u.)"},
      {"sequence": "TTTAGTTTAGTTCGTCCATCTTTGTCGATTTGCGCTGAAACGGAGTCACCTAGTGCAG", "binding signal": "10800 fluorescence intensity (a.u.)"}
    ]}
  ]
}
